Test results published in patent CN117866904A.
No constants are given. Whether binding was seen depends on the method and setting. Some entries that bind do so weakly or less than the wild type. For some assays here: Sequences can lack the tags named with a protein.

By UniProt entry, the sequences of proteins in these tests, tags left out. Residues count along the entry.
UniProt Q96F46, residues 33-866: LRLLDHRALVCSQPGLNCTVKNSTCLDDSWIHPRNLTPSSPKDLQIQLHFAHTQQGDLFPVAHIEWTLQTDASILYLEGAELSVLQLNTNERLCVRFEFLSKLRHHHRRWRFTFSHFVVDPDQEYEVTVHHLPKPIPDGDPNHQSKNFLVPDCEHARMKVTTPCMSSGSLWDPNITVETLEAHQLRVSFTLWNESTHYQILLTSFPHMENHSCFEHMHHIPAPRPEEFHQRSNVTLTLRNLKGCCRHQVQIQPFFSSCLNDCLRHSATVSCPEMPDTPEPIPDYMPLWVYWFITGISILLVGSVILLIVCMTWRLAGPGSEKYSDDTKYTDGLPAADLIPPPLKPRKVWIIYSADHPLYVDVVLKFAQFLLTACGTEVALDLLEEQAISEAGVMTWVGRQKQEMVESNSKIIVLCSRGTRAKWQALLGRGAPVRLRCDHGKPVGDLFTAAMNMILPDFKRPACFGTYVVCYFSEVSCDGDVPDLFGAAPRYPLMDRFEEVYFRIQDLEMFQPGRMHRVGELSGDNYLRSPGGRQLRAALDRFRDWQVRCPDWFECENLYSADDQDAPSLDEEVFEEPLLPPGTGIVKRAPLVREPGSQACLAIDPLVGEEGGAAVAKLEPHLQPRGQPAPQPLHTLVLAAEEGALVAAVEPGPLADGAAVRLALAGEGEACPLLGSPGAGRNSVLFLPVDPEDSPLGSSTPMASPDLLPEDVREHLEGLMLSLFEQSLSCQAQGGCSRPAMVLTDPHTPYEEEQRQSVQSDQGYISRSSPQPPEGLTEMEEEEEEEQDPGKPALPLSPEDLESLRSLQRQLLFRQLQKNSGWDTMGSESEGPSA

Tests used:
[1] = molecular target: IL-17RA (UniProtKB: Q96F46), overexpressed on 293F-IL-17RA-IL-17Rc-ACT1-NFκB-Luc reporter cells (UniProt Q96F46); assay: recombinant IL-17A on 293 cells overexpressing IL-17RA and IL-17RC
[2] = molecular target: T1, IL-17RC (UniProtKB: Q8NAC3), overexpressed on 293F-IL-17RA-IL-17Rc-ACT1-NFκB-Luc reporter cells (UniProt Q8NAC3); assay: as above
T1 sequence (looked up): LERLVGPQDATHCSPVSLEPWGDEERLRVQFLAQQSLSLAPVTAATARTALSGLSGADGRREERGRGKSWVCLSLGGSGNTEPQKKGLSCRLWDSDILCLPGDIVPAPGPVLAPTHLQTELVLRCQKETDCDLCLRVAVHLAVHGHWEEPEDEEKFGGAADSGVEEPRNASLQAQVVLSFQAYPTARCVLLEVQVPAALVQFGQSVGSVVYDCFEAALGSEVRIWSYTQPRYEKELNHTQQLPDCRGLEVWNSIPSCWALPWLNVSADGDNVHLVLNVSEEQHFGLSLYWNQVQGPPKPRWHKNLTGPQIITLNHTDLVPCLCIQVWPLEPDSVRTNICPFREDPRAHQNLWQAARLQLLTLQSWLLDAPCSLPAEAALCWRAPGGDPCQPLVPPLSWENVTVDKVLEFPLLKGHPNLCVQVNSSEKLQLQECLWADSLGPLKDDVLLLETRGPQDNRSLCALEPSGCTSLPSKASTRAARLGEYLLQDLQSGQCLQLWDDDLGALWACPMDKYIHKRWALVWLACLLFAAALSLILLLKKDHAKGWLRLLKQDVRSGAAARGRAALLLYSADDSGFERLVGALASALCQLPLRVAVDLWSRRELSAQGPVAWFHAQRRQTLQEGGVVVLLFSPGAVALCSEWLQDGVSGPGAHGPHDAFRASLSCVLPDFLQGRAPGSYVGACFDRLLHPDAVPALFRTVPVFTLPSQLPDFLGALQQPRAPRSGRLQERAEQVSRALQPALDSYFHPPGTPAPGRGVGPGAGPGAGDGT

Substance: IL-17A重组蛋白(抗原), IL-17 antigen with a C-terminal 6×His tag, expressed in E. coli BL21 (from UniProt Q16552 24-155) (ligand)
- binding [1]: binds
- binding [2]: binds
